Laboratory results taken from PubChem BioAssay AID2685 (National Center for Advancing Translational Sciences (NCATS), 2010).
This is one part of the list. The main result of the screen is listed elsewhere. These columns were measured beside it and carry no call. Compounds called inactive in the main read-out are mostly missing here. The note in brackets gives the kind of curve behind each potency; many fits are weak.

Assay: qHTS Assay for Lipid Storage Modulators in Drosophila S3 Cells;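 for cell number change: cells counted by Cell Tracker Red CMTPX staining in the red channel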
Settings: BODIPY lipid droplet fluorescence, 18-24 h; for cell number change: measured here: cell count max response, cells fed with added oleic acid
In short: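 Drosophila S3 cells loaded with oleic acid (400 uM, as added) and compounds at several concentrations; lipid droplets imaged by 488-nm laser-scanning cytometry, 500–530 nm intensity and object ratio to cell channel. Percent activity normalized to 20 uM Triacsin C.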

[1] = measured here: cell number channel AC50, cells fed with added oleic acid
[2] = measured here: lipid fluorescence (Fed channel) AC50, cells fed with added oleic acid

| Compound | cell number change [%] | AC50 [1] | AC50 [2] |
| --- | --- | --- | --- |
| CCNC(=S)NNC(=O)c1nn(C)c(C)c1Cl | 18.4 | 0.82 µM [rising, full curve] | 0.231 µM [rising, full curve, poor fit] |
| O=C(NCc1ccccc1F)C(=O)NCC1OCCCN1S(=O)(=O)c1cccs1 (configuration not stated) | 31.2 |  | 6.51 µM [rising, partial curve] |
| Clc1cc(NCc2ccccc2)ncn1 | 5.21 |  | 3.26 µM [falling, partial curve] |
| O=C(c1cc(=O)[nH]c2ccccc12)N(Cc1nnc(-c2ccccc2Cl)o1)C1CC1 | 120 | 14.6 µM [rising, partial curve] |  |
| O=C1C2C3C=CC(CO)(O3)C2C(=O)N1c1ccc(-c2ccccc2)cc1 (configuration not stated) | -70.3 | 16.4 µM [falling, partial curve] | 18.4 µM [falling, partial curve] |
| OC(CC#CCN1CCCC1)(c1ccccc1)c1ccccc1 | -5.96 |  | 5.8 µM [falling, single point] |
| CCOc1ccc(C(C)NC(=S)NCc2ccc(F)cc2)cc1 (configuration not stated) | 27.7 |  |  |
| CCc1nc2ccc(C(=O)N(CC)CC(=O)Nc3c(F)cccc3F)cc2nc1CC | 8.13 |  | 14.6 µM [rising, single point] |
| COc1ccc(NC(=O)NC2(C(=O)N3CCCCCC3)CCCCC2)cc1 | 9.29 |  | 0.00517 µM [falling, full curve] |
| c1ccc2c(Oc3ccc4c(c3)OCO4)nncc2c1 | -10.7 |  | 0.259 µM [rising, full curve] |
| CC(C)CC(=O)OCC(=O)Nc1ccccc1Sc1ccccc1 | 3.93 |  | 29.1 µM [rising, single point] |
| CCn1c2ccccc2c2cc(NC(=O)CC(C)=O)ccc21 | 24.9 |  | 5.8 µM [rising, full curve] |
| Cc1cccnc1NC(=O)CN1C(=O)c2ccccc2S1(=O)=O |  | 2.59 µM [rising, partial curve] |  |
| Cc1ccc(S(=O)(=O)NC(CC(=O)O)c2ccccc2)c(C)c1 (configuration not stated) | -15.5 |  | 2.59 µM [falling, single point] |
| O=C(N1CCC(O)(c2cccnc2)CC1)C12CC3CC(CC(C3)C1)C2 | 20.1 |  | 0.517 µM [falling, full curve] |
| CCOC(CNC(=O)CN1C(=O)COc2ccc(S(=O)(=O)N3CCCC3)cc21)OCC | 16.1 |  | 3.66 µM [falling, full curve] |
| COc1cc2cc(CCCOC(=O)c3ccc(C(F)(F)F)cc3)oc(=O)c2cc1OC | -4.33 |  | 0.116 µM [falling, full curve, poor fit] |
| FC(F)(F)c1cccc(NC(=S)NNC(=S)Nc2cccc(C(F)(F)F)c2)c1 | -55.4 | 20.6 µM [falling, single point] | 29.1 µM [falling, single point] |
| Cc1ccc(-n2cnc3cc(NCc4cccs4)ccc32)cc1 | -33.6 | 3.66 µM [falling, single point] | 6.51 µM [rising, partial curve, poor fit] |
| Cc1c(NC(=O)Nc2ccc3c(c2)OCO3)cccc1[N+](=O)[O-] | 28.5 |  | 8.2 µM [rising, partial curve] |
| CC1CN(C(=O)CCC(=O)NCc2ccccc2)c2ccccc2O1 (configuration not stated) | 20.5 | 3.26 µM [rising, full curve, poor fit] |  |

| Compound | cell number change [%] | AC50 [1] | AC50 [2] |
| --- | --- | --- | --- |
| O=NN(CCc1ccncc1)c1ccc(OCc2ccccc2)cc1 | -29.9 |  | 18.4 µM [falling, single point] |
| O=C(COC(=O)CCC(=O)c1cccs1)NCc1ccc(Cl)cc1 |  | 0.291 µM [rising, partial curve, poor fit] |  |
| Cc1noc(C)c1C(=O)Nc1nc(-c2ccc(F)cc2)cs1 | -5.01 |  | 0.651 µM [rising, partial curve, poor fit] |
| O=c1[nH]oc(O)c1-c1ncc(C(F)(F)F)cc1Cl | -55.7 | 29.1 µM [falling, single point] | 29.1 µM [falling, single point] |
| Cc1ccc(NC(=O)c2ccc3c(=O)n4c(nc3c2)CCC4)cc1S(=O)(=O)N(C)C | 33 | 8.2 µM [rising, partial curve, poor fit] |  |
| CN(CCOc1ccc(Cl)cc1)C(=O)c1cc(S(=O)(=O)N2CCOCC2)ccc1N1CCCC1 | -1.2 |  | 29.1 µM [falling, single point] |
| Cc1[nH]c(=O)c(C#N)c(C)c1Br | -185 | 18.4 µM [falling, single point] |  |
| Cc1cc(C)n(CC(=O)N/N=C/c2cccs2)n1 | -7.96 |  | 20.6 µM [rising, single point] |
| CC1CN(C(=O)COC(=O)c2cc(=O)c3ccccc3o2)CC(C)O1 (configuration not stated) | -18.1 |  | 0.206 µM [rising, single point] |
| Cc1nc2ccc(Cl)cc2c(-c2ccccc2F)c1CC(=O)O | 78.6 | 16.4 µM [rising, single point] |  |
| O=C(NCCc1ccccc1)C1CCN(c2nc3ccccc3o2)CC1 | -32.2 | 9.2 µM [falling, partial curve] |  |
| CCOC(=O)C1=C(c2ccccc2)NC(=O)NC1c1ccc(OC)c(OC)c1 (configuration not stated) | 43.6 | 16.4 µM [rising, single point] | 23.1 µM [rising, partial curve] |
| O=C(O)CC(NC(=O)C12CC3CC(CC(C3)C1)C2)c1ccc(Cl)cc1 (configuration not stated) | 9.22 |  |  |
| CNC(=S)Nc1ccc(OCc2ccccc2)cc1 | -34.3 |  |  |
| CCOC(=O)N1CCN(c2nc(-c3cccc(OC)c3)cc(C(F)(F)F)n2)CC1 | -20.6 |  | 18.4 µM [falling, partial curve] |
| CC(=O)c1cc2c(s1)-c1cc(F)ccc1OC2 | 21.6 |  | 0.291 µM [rising, partial curve] |
| CC(=O)c1cccc(NC(=O)c2cnn(-c3ccccc3)c2C)c1 | -26.9 |  |  |
| Cc1c(Cl)cccc1NC(=O)c1nc(C)n(-c2cc(OC(C)C)c(Cl)cc2Cl)n1 | -35.1 | 0.103 µM [falling, full curve, poor fit] | 20.6 µM [falling, partial curve] |
| CC(OC(=O)c1ccc(Cl)c(S(=O)(=O)N2CCOCC2)c1)C(=O)Nc1ccc(S(N)(=O)=O)cc1 (configuration not stated) | -69.1 | 32.6 µM [falling, partial curve] |  |
| O=C(NCc1ccc(F)cc1)C1CCCN(S(=O)(=O)c2cccc3nonc23)C1 (configuration not stated) | 97.7 | 29.1 µM [rising, single point] |  |
| CCCCNC(=O)COC(=O)c1ccc(F)cc1Cl | 52.2 | 32.6 µM [rising, single point] |  |

15 consecutive compounds out of the list so far, for reference:

| Compound | cell number change [%] | AC50 [1] | AC50 [2] |
| --- | --- | --- | --- |
| Cc1[nH]c(=O)c(C#N)c(C)c1Br | -185 | 18.4 µM [falling, single point] |  |
| Cc1cc(C)n(CC(=O)N/N=C/c2cccs2)n1 | -7.96 |  | 20.6 µM [rising, single point] |
| CC1CN(C(=O)COC(=O)c2cc(=O)c3ccccc3o2)CC(C)O1 (configuration not stated) | -18.1 |  | 0.206 µM [rising, single point] |
| Cc1nc2ccc(Cl)cc2c(-c2ccccc2F)c1CC(=O)O | 78.6 | 16.4 µM [rising, single point] |  |
| O=C(NCCc1ccccc1)C1CCN(c2nc3ccccc3o2)CC1 | -32.2 | 9.2 µM [falling, partial curve] |  |
| CCOC(=O)C1=C(c2ccccc2)NC(=O)NC1c1ccc(OC)c(OC)c1 (configuration not stated) | 43.6 | 16.4 µM [rising, single point] | 23.1 µM [rising, partial curve] |
| O=C(O)CC(NC(=O)C12CC3CC(CC(C3)C1)C2)c1ccc(Cl)cc1 (configuration not stated) | 9.22 |  |  |
| CNC(=S)Nc1ccc(OCc2ccccc2)cc1 | -34.3 |  |  |
| CCOC(=O)N1CCN(c2nc(-c3cccc(OC)c3)cc(C(F)(F)F)n2)CC1 | -20.6 |  | 18.4 µM [falling, partial curve] |
| CC(=O)c1cc2c(s1)-c1cc(F)ccc1OC2 | 21.6 |  | 0.291 µM [rising, partial curve] |
| CC(=O)c1cccc(NC(=O)c2cnn(-c3ccccc3)c2C)c1 | -26.9 |  |  |
| Cc1c(Cl)cccc1NC(=O)c1nc(C)n(-c2cc(OC(C)C)c(Cl)cc2Cl)n1 | -35.1 | 0.103 µM [falling, full curve, poor fit] | 20.6 µM [falling, partial curve] |
| CC(OC(=O)c1ccc(Cl)c(S(=O)(=O)N2CCOCC2)c1)C(=O)Nc1ccc(S(N)(=O)=O)cc1 (configuration not stated) | -69.1 | 32.6 µM [falling, partial curve] |  |
| O=C(NCc1ccc(F)cc1)C1CCCN(S(=O)(=O)c2cccc3nonc23)C1 (configuration not stated) | 97.7 | 29.1 µM [rising, single point] |  |
| CCCCNC(=O)COC(=O)c1ccc(F)cc1Cl | 52.2 | 32.6 µM [rising, single point] |  |

Next records follow:

| Compound | cell number change [%] | AC50 [1] | AC50 [2] |
| --- | --- | --- | --- |
| CC1CN(c2ncnc3c2cnn3-c2ccc(Cl)cc2)CC(C)O1 (configuration not stated) | 19.7 |  | 2.31 µM [falling, partial curve] |
| COCc1cc(C)nc(SCC(=O)Nc2ccc3[nH]c(=O)[nH]c3c2)c1C#N | 90.4 | 18.4 µM [rising, partial curve] |  |
| O=C(Nc1ccccc1C(F)(F)F)N1CCC(N2CCCCC2)CC1 | -8.4 |  | 0.146 µM [falling, full curve] |
| COc1ccc(COC(=O)c2ccc(S(=O)(=O)N3CCCCC3)cc2)cc1OC | 30 |  |  |
| CN(Cc1ccccc1)C(=O)COC(=O)C1CCN(S(=O)(=O)c2cccs2)CC1 | -14.3 |  | 1.16 µM [falling, full curve] |
| Cc1ccc(NC(=O)CN(C)S(=O)(=O)c2cccc3nsnc23)cc1 |  | 0.184 µM [rising, full curve, poor fit] |  |
| COc1cccc(OC)c1OCCNC(C)(C)C | 25.1 |  | 29.1 µM [rising, single point] |
| COc1ccc(NC2=NC(=S)N(c3ccc(C)cc3)C23CCCCC3)cc1 |  |  | 3.26 µM [rising, single point] |
| CC(=O)N1CCN(c2ccc(NC(=O)c3ccco3)cc2Cl)CC1 |  |  | 10.3 µM [rising, partial curve, poor fit] |
| CCN(CC(=O)NC(C)(C)C)C(=O)c1ccccc1SCC(=O)NC1CCCCCCC1 | -19.2 |  |  |
| Cc1ccc(-c2[nH]c3ccccc3c2SCCN)cc1 | 24.8 |  | 29.1 µM [rising, single point] |
| CCN(CC)C(CNS(=O)(=O)c1ccc(Cl)cc1)c1ccccc1 (configuration not stated) | -13.1 |  | 0.00517 µM [falling, full curve, poor fit] |
| Cc1ccc(NC(=O)c2ccc3nc(N4CCOCC4)sc3c2)c(Cl)c1 | 5.99 |  | 14.6 µM [rising, partial curve, poor fit] |
| COc1ccc(CCN2CC(C(=O)N(C)Cc3cccnc3)CC2=O)cc1OC (configuration not stated) | 32 | 7.31 µM [rising, partial curve, poor fit] | 29.1 µM [rising, single point] |
| CN1CC2(Cc3c1ccc1ccccc31)C(=O)OC(C)(C)OC2=O | -1.66 |  | 6.51 µM [falling, single point] |
| COC(=O)Cn1c2nc3ccccc3nc2c2cccc(C)c21 |  | 1.84 µM [rising, partial curve, poor fit] |  |
| CSc1nc2sc3c(c2c(=O)n1C)CCCC3 | 23.1 |  | 29.1 µM [rising, single point] |
| O=C(c1ccc(Oc2ccc(C(F)(F)F)cc2[N+](=O)[O-])cc1)N1CCOCC1 | -27.9 | 1.64 µM [falling, single point] |  |
| Cc1ccc(O)c(C2=Nc3ccccc3N=C(c3ccc([N+](=O)[O-])cc3)C2)c1 | -8.99 |  |  |
